Results are given in words; binding and its absence hold for the method and conditions named. In cells and extracts the contact can be indirect. Some entries that bind do so weakly or less than the wild type.
Target: cyclin B1 (human (endogenous in HFF)), P14635
Assay: co-IP
Conditions: remark: other sources report otherwise

B1: HCMV protein kinase pUL97, wild type (parental strain Ad169/BADwt), P16788 1-707 (enzyme)
chain: MSSALRSRARSASLGTTTQGWDPPPLRRPSRARRRQWMREAAQAAAQAAVQAAQAAAAQVAQAHVDENEVVDLMADEAGGGVTTLTTLSSVSTTTVLGHATFSACVRSDVMRDGEKEDAASDKENLRRPVVPSTSSRGSAASGDGYHGLRCRETSAMWSFEYDRDGDVTSVRRALFTGGSDPSDSVSGVRGGRKRPLRPPLVSLARTPLCRRRVGGVDAVLEENDVELRAESQDSAVASGPGRIPQPLSGSSGEESATAVEADSTSHDDVHCTCSNDQIITTSIRGLTCDPRMFLRLTHPELCELSISYLLVYVPKEDDFCHKICYAVDMSDESYRLGQGSFGEVWPLDRYRVVKVARKHSETVLTVWMSGLIRTRAAGEQQQPPSLVGTGVHRGLLTATGCCLLHNVTVHRRFHTDMFHHDQWKLACIDSYRRAFCTLADAIKFLNHQCRVCHFDITPMNVLIDVNPHNPSEIVRAALCDYSLSEPYPDYNERCVAVFQETGTARRIPNCSHRLRECYHPAFRPMPLQKLLICDPHARFPVAGLRRYCMSELSALGNVLGFCLMRLLDRRGLDEVRMGTEALLFKHAGAACRALENGKLTHCSDACLLILAAQMSYGACLLGEHGAALVSHTLRFVEAKMSSCRVRAFRRFYHECSQTMLHEYVRKNVERLLATSDGLYLYNAFRRTTSIICEEDLDGDCRQLFPE
B1 was tested, and the binding was “binds”.
